Patent publication US20110275703A1, “SUBSTITUTED SPIROKETAL DERIVATIVES AND USE THEREOF AS THERAPEUTIC DRUG FOR DIABETES” (CHUGAI SEIYAKU KABUSHIKI KAISHA, priority 2007, published 2011)
Some of these results come from one statement about several compounds together.

System: db/db mice
Assay: Study for glucose lowering effect in db/db mouse
Type: in vivo
Conditions: 0.3 mg/kg administration
Protocol: Study for Glucose Lowering Effect in dB/dB Mouse
A study for glucose lowering effect was conducted using db/db mice (purchased from Clea Japan, Inc., male, 9 to 11 weeks old), type 2 diabetic model mice. On the day of the study, body weights and blood glucose levels were measured prior to the start of testing. Measurement of the blood glucose levels was performed using a simple blood glucose meter (manufactured by Bayer HealthCare, Dexter-Z II). The mice were allocated to some groups consisting of 5 mice each so that homogeneity of body weights or blood glucose levels among groups would be ensured. Blood collection was carried out by making an incision on the tip of the tail and taking the blood therefrom. On the day of the study, the test compounds were suspended in 0.5% carboxymethylcellulose solution (CMC solution), and the dosing solutions of which concentration was adjusted to either 0.3 mg/10 mL or 3 mg/10 mL were prepared. The dosing solutions were orally administered by gavage for mice in 10 mL/kg. To the control group, only a 0.5% CMC solution was orally administered in 10 mL/kg. Blood was collected prior to or sequentially after administration of test compounds by above method. The blood glucose levels were determined using a hexokinase method (AutoSera S GLU, manufactured by Daiichi Pure Chemicals Co., Ltd.). A percent reduction of blood glucose relative to control group at each time point after administration of test compounds was calculated by the following equation.
Percent reduction of blood glucose (%)={blood glucose level in the control group (mg/dL)-blood glucose level in the test compound group (mg/dL)}/blood glucose level in the control group (mg/dL)×100

SMILES | reduction of blood glucose 24 hours after administration [%]
OC[C@H]1O[C@]2(OCc3cc(Cl)c(Cc4cc5ccccc5s4)cc32)[C@H](O)[C@@H](O)[C@@H]1O [Example 28, (1S,3′R,4′S,5′S,6′R)-6-[(benzothiophen-2-yl)methyl]-5-chloro-3′,4′,5′,6′-tetrahydro-6′-(hydroxymethyl)-spiro[isobenzofuran-1(3H),2′-[2H]pyran]-3′,4′,5′-triol] | ≥ 25
Cc1ccc(Cc2cc3c(cc2Cl)CO[C@]32O[C@H](CO)[C@@H](O)[C@H](O)[C@H]2O)cc1 [Example 2, (1S,3′R,4′S,5′S,6′R)-5-chloro-3′,4′,5′,6′-tetrahydro-6′-(hydroxymethyl)-6-[(4-methylphenyl)methyl]-spiro[isobenzofuran-1(3H),2′-[2H]pyran]-3′,4′,5′-triol] | ≥ 25
CSc1ccc(Cc2cc3c(cc2Cl)CO[C@]32O[C@H](CO)[C@@H](O)[C@H](O)[C@H]2O)cc1 [Example 3, (1S,3′R,4′S,5′S,6′R)-5-chloro-3′,4′,5′,6′-tetrahydro-6′-(hydroxymethyl)-6-[(4-(methylthio)phenyl)methyl]-spiro[isobenzofuran-1(3H),2′-[2H]pyran]-3′,4′,5′-triol] | ≥ 25
CCc1ccc(Cc2cc3c(cc2Cl)CO[C@]32O[C@H](CO)[C@@H](O)[C@H](O)[C@H]2O)s1 [Example 29, (1S,3′R,4′S,5′S,6′R)-5-chloro-6-[(5-ethylthiophen-2-yl)methyl]-3′,4′,5′,6′-tetrahydro-6′-(hydroxymethyl)-spiro[isobenzofuran-1(3H),2′-[2H]pyran]-3′,4′,5′-triol] | ≥ 25
COc1ccc(Cc2cc3c(cc2Cl)CO[C@]32O[C@H](CO)[C@@H](O)[C@H](O)[C@H]2O)cc1 [Example 4, (1S,3′R,4′S,5′S,6′R)-5-chloro-3′,4′,5′,6′-tetrahydro-6′-(hydroxymethyl)-6-[(4-methoxyphenyl)methyl]-spiro[isobenzofuran-1(3H),2′-[2H]pyran]-3′,4′,5′-triol] | ≥ 25
